In publication PMC7524721:
No constants are given. Whether binding was seen depends on the method and setting. In cells and extracts the contact can be indirect. Some binding calls cover weakened binding; strength is not graded here.

The chains behind the UniProt entries cited, without tags or fusion partners.
UniProt Q9UKV8: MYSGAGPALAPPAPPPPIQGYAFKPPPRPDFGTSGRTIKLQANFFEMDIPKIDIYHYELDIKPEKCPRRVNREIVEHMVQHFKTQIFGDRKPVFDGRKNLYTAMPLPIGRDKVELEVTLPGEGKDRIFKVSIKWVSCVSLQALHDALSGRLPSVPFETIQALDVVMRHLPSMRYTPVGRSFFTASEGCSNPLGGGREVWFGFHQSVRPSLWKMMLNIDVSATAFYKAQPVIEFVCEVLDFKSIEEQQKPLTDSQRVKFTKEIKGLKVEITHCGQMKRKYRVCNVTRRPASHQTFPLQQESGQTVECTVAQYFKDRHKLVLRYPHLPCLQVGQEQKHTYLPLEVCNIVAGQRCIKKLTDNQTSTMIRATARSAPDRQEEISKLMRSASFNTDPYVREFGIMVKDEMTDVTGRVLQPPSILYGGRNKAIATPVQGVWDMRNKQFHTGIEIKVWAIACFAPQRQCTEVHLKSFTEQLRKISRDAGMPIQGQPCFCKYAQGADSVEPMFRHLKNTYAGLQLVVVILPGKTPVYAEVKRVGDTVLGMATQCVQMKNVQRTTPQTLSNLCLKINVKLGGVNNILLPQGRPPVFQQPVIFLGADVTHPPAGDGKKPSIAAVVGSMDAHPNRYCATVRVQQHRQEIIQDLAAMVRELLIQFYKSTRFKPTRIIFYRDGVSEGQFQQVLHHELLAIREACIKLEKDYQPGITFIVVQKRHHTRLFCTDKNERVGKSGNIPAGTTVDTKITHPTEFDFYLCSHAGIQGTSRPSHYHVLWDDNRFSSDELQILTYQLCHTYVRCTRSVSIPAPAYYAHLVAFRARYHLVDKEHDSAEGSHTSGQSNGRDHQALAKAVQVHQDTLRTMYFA

Columns and labels:
Test in all cases: co-IP; HEK 293 T cells transfected and lysed; lysates cleared at 15,000g and 100,000g at 4 °C; Flag M2 sepharose beads 2 h at 4 °C; washed with lysis buffer; Western blot
BICC1 (mouse) = target: T1, BICC1 (mouse) (UniProt Q99MQ1)
T1 sequence: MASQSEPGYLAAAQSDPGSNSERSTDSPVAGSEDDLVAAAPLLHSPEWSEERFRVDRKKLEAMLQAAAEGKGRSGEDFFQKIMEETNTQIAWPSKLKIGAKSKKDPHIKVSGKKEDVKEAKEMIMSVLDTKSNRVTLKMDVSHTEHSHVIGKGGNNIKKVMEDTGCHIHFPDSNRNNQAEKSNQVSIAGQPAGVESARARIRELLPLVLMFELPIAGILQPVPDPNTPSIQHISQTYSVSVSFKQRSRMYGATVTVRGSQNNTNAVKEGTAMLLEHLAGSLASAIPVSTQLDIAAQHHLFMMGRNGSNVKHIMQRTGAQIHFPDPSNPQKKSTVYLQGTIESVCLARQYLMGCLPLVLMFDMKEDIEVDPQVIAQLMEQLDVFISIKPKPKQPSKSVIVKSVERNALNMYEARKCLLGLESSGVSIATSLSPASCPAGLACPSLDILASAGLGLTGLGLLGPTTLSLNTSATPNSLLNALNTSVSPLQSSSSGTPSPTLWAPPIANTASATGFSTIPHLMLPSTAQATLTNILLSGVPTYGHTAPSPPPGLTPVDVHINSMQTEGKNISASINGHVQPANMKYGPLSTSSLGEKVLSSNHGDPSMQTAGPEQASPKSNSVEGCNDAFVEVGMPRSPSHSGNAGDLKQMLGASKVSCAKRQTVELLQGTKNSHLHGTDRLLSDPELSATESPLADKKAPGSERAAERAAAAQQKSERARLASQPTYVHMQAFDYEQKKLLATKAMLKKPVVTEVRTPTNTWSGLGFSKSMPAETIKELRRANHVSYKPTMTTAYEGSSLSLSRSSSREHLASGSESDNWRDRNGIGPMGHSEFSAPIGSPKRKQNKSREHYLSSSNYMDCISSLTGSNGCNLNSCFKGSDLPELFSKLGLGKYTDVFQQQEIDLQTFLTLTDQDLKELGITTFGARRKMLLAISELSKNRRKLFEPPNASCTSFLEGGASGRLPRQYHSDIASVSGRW

[1] = target: T2, ANKS3 (not stated (human or mouse cDNA cloned)) (UniProt Q6ZW76)
T2 sequence: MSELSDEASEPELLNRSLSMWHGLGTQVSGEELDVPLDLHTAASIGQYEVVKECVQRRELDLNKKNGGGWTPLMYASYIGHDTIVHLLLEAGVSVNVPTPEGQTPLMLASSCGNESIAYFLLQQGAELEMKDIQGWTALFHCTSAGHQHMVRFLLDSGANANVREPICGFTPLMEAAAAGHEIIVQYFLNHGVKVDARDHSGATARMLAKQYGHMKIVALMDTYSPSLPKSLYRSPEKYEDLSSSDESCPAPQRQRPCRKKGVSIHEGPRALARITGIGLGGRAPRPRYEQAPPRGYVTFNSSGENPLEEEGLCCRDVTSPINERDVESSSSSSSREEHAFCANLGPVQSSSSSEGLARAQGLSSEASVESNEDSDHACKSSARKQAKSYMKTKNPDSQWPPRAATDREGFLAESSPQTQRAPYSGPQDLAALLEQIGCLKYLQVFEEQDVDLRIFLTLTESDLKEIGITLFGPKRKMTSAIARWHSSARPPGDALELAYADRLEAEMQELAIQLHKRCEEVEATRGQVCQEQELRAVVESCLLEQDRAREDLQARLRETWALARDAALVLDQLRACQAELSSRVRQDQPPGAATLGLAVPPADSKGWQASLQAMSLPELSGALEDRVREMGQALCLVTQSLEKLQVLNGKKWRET

[2] = target: T3, ANKS6 (NPHP16) (not stated (human or rat cDNA cloned)) (UniProt Q68DC2)
T3 sequence: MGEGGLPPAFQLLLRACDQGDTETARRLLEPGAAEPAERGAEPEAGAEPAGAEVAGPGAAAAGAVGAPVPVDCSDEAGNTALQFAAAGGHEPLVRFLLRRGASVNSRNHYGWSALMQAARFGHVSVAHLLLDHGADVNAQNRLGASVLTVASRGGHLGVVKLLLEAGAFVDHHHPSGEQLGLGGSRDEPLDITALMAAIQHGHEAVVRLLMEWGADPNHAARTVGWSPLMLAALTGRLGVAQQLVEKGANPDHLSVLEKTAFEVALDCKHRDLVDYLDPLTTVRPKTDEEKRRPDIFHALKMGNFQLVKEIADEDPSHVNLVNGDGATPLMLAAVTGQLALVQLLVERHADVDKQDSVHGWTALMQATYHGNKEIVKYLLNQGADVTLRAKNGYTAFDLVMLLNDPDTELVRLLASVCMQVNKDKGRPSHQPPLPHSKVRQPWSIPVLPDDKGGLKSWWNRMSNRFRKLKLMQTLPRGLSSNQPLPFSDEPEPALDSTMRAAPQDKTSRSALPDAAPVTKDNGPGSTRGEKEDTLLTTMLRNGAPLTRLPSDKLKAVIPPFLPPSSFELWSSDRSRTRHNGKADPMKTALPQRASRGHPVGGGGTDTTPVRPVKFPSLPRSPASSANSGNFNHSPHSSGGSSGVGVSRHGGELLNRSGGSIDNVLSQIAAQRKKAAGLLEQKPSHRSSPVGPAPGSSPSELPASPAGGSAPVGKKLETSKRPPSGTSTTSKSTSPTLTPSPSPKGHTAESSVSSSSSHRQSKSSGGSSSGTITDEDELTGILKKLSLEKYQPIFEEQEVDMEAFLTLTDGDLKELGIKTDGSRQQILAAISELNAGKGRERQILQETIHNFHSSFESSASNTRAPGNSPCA

INVERSIN (NPHP2) (human) = target: T4, INVERSIN (NPHP2) (human) (UniProt Q9Y283)
T4 sequence: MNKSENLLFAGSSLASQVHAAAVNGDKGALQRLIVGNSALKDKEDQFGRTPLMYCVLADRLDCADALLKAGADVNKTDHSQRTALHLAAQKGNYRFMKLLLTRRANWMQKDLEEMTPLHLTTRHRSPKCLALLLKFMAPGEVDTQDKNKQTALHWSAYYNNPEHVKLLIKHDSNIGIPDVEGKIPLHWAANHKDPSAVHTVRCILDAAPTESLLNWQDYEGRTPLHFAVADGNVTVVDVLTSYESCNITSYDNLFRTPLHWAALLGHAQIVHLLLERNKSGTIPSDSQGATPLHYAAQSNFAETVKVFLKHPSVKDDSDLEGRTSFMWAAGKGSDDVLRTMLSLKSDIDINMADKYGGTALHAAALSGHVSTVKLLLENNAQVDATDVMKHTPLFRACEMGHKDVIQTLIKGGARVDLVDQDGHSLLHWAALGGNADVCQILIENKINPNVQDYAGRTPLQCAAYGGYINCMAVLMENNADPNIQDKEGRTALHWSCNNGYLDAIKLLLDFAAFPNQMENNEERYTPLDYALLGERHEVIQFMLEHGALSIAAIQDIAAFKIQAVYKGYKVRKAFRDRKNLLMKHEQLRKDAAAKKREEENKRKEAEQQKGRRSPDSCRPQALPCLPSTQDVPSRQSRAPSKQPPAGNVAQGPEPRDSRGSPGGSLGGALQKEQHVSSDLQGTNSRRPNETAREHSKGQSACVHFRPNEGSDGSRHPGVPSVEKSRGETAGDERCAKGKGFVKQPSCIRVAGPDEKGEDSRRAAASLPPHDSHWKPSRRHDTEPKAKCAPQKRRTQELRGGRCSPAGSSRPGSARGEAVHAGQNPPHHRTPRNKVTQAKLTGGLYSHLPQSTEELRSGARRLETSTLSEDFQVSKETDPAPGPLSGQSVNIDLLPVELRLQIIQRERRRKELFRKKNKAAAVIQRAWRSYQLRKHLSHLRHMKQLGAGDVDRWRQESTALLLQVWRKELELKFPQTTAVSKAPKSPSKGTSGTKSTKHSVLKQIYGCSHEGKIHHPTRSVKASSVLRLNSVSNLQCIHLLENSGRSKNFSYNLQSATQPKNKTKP

binding (BICC1 (mouse)): binds
binding [1]: binds
binding [2]: binds
binding (INVERSIN (NPHP2) (human)): binds
Substance: AGO2 (from UniProt Q9UKV8 1-859)
